Test results reported in the supplement of paper PMC10689618.
The other results are listed elsewhere or left out. Repeats are few or missing, and single values can be far off.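 Labelled rat cortical synaptosomes were engulfed by primary human fetal astrocytes. Engulfment equaled a red/green ratio, corrected for calcein live-cell signal and normalized to the plate median. Compounds were toxic when calcein dropped over 30%, and reduced phagocytosis when below 70% of the median above 5 µM.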

How the values were obtained:
[1] = tested on: Human fetal astrocytes; assay: loss of total cells relative to no-compound high-control median (toxicity); higher = more toxic (fewer cells); conditions: 24 h
[2] = tested on: Human fetal astrocytes; assay: synaptosome phagocytosis (pHrodo/calcein intensity ratio) relative to plate median of data wells; higher = more phagocytosis; conditions: 24 h

| SMILES | loss of total cells ([1]; 1.39 µM) | loss of total cells ([1]; 2.78 µM) | loss of total cells ([1]; 5.56 µM) | loss of total cells ([1]; 11.11 µM) | loss of total cells ([1]; 22.22 µM) | synaptosome phagocytosis ([2]; 1.39 µM) | synaptosome phagocytosis ([2]; 2.78 µM) | synaptosome phagocytosis ([2]; 5.56 µM) | synaptosome phagocytosis ([2]; 11.11 µM) | synaptosome phagocytosis ([2]; 22.22 µM) |
| --- | --- | --- | --- | --- | --- | --- | --- | --- | --- | --- |
| O=C(O[C@@H]1Cc2c(O)cc(O)cc2O[C@@H]1c1cc(O)c(=O)c2c(O)c(O)cc([C@H]3Oc4cc(O)cc(O)c4C[C@H]3O)c2c1)c1cc(O)c(O)c(O)c1 | -8.3% | 20.6% | 36.2% | 28% | 35.6% | 84.3% | 88.2% | 107% | 78.4% | 52% |
| CC(=O)c1ccc2c(c1)N(CCCN(C)C)c1ccccc1S2 | -35.5% | -30.2% | -7.5% | -12.1% | -0.9% | 106% | 108% | 90% | 67% | 92.4% |
| COc1ccc(-c2coc3c(OC)c(OC)cc(O)c3c2=O)cc1 | -11.2% | 2% | -19.8% | 15.5% | -22.6% | 110% | 89.2% | 103% | 96.8% | 122% |
| COc1c(O)cc2oc3cc(O)c(CC=C(C)C)c(O)c3c(=O)c2c1CC=C(C)C | -19.7% | -11.9% | -11% | 35.8% | 65.9% | 125% | 120% | 114% | 50.2% | 12% |
| C[C@]12C=CC(=O)C=C1CC[C@@H]1[C@@H]2C(=O)C[C@@]2(C)[C@H]1CC[C@]2(O)C(=O)CO | -0.3% | -9.2% | 7% | -5.5% | 43.5% | 102% | 130% | 93% | 104% | 146% |
